Test results published in PubChem BioAssay AID1508600 (Functional Genomics Laboratory (NCATS/FGL), 2020).
In all, about 53,000 sequences went through this assay and about 3,700 (7%) were called active.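 How the source made its calls: active means gene knockdowns whose robust z-score for IL-1 alpha signal is at least 2 or at most -2, so actives lie on both sides; inactive means the rest.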 The list shows a part of the results.

Assay: Components of the Cytosolic LPS Sensing Pathway: Gene Identification via Genome-wide siRNA Screen;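 further: robust z of the log signal after scaling to non-targeting control siRNA wells of the plate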
Settings: RAW264.7 macrophages, IL-1a HTRF, actives lie on both sides, screened at 100 nM (by protocol), cells primed 5 h with Pam3CSK4 first
Summary of the method: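 Using IL-1a HTRF as read-out, the screen measured release from RAW264.7 cells after 48h siRNA knockdown (100 nM), 5 h Pam3CSK4 priming and 24 h cytosolic LipidA. Values were expressed relative to negative-control wells as robust z-scores.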

Sequence	z-score
GGUAGACAACAGGUUGUUGTT against Crhbp	inactive: 0.217
GGAAAAAACCUUUGACCAATT against Terb1	inactive: -0.595
GGCCUGUUGAUUGCAUAUUTT against Sppl2a	inactive: -1.01
GGAAGUUUUAGUCCCUCUUTT against 4632415L05Rik	inactive: 0.471
CGUCUCUAUAUACAUACAATT against 9930038B18Rik	inactive: 0.845
GGAGGUGAACAGAUCUCACTT against Fubp1	inactive: 0.391
GGACCUCCUGUUUUUAUUCTT against Ppip5k2	inactive: 1.23
GGACGAAAAGGAAUAUAUGTT against Cul1	inactive: -0.422
GGACAAGGGCACAUCCAGUTT against Gtf2h4	inactive: -0.187
GCAUGGACUGACAUCAAGCTT against Map6	inactive: 0.0516
GGUCGUAAGUUUCAUAAUUTT against Aqp3	inactive: -0.1
GGACAAAACAUGGAAAAGCTT against 4930486L24Rik	inactive: -0.638
GGACCUUAGCUGCUCUAACTT against Adgrb3	inactive: 0.975
GGCACUACUAUCAAGACAGTT against 4933436I01Rik	inactive: -0.109
ACUUCUGGCUCCGUUAAGGTT against Krt42	inactive: 0.878
GGUUCUUGUGGAUCUUACCTT against Olfr1424	inactive: 0.353
CGUAUUAACGACAUAAGAGTT against Nckap1	inactive: -0.169
GGUGUUCAUUGAAGUCCAGTT against Nudcd2	inactive: -0.0478
GGACCUGUUCAUUUUUGUCTT against Pdgfrb	inactive: 1.43
GGACUAUAUCAGCGGAAGUTT against Sidt2	inactive: 1.77
CGUUCUUAUUACAUCUGAUTT against Omt2b	inactive: -0.324
GCGUAGGUCAUCCUUGUAATT against Samd4	active: -2.22

Sequence	z-score
GGGAAAGGAGCCAUUAUUGTT against Atat1	inactive: -1.26
GGGAUUGAGUUUGUCCUAUTT against Olfr453	inactive: -0.368
CCGUCAACUUCUAGAUGGUTT against Trpm5	inactive: -0.115
GGAGCCAAGUGUGAUUACATT against Pias3	active: 6.29
GGCUCUCUGUCUGGAAAAGTT against Vcan	inactive: -1.25
GGAGACGAUGGAAUAUUUGTT against Snx3	inactive: -0.947
GCCAACAGAAAUAAGCCUUTT against Sorcs1	inactive: 0.221
GGAGAUUAGUUGUGACUGATT against Clec5a	inactive: -0.527
GGUUGCUCUUAAGAUCAAUTT against Crx	inactive: 1.16
GGUAGCACUUUGUAUUUUATT against Spg7	inactive: 0.575
GGCAGAAGGUCUAUGAUUGTT against Zfp637	inactive: 1.32
GGUACUGUGUCUGAUGUAATT against Cnpy1	inactive: -1.43
GGUGGUAAUUGGCUACUUUTT against Slc31a2	inactive: 0.16
GGAUACAGUCAAAUUACUUTT against Usp9y	inactive: 0.527
CCAGCUAUGUGUAUAAACCTT against Ppid	inactive: -0.045
CCAAGGAAGUAGAUAAACUTT against 1700074P13Rik	inactive: 0.232
GCCCUCUCACAUCAGUAUUTT against Lpcat2b	inactive: 0.17
GCCCUUGAAGAUCAUUAGCTT against Dph7	inactive: -0.0738
GGCUGAGAAAACCAAAGGGTT against Cfdp1	inactive: 1.9
GGCUUUUAUUUUCUGGGAUTT against Barhl1	active: 2.4
CCCAUGAUUCCAGAAAAGATT against Mfsd4b5	inactive: 0.57
GGAGGAAAUGAUCACAGCUTT against Ccl20	active: -2.31

A few values from the results shown:
z-score, GGAGGAAAUGAUCACAGCUTT against Ccl20 is entered as active: -2.31
z-score, GGCUUUUAUUUUCUGGGAUTT against Barhl1 is entered as active: 2.4
z-score, GGUAGCACUUUGUAUUUUATT against Spg7 is entered as inactive: 0.575
z-score, CCCAUGAUUCCAGAAAAGATT against Mfsd4b5 is entered as inactive: 0.57

The listing continues:

Sequence	z-score
GGUCUACUUCUUUUUUACGTT against Sema4d	inactive: 0.467
GACCUUCUACAGAUAUUACTT against Dbr1	inactive: -0.452
GGGCCAAUUCUGAAACUUGTT against Il1f5	inactive: 0.669
GCUAGAGGUAUCAUGCUGATT against B4galt6	inactive: -0.0925
GGAGAGUCUUGGAAAGGAATT against 3110082I17Rik	inactive: 0.79
GGAGUGAGUCCUGAAGCAATT against Ifna12	inactive: -0.372
GGAUAGAACUCUAAGCCGUTT against Nkx2-2	inactive: 0.626
CGACUUUAAUUCCAAUCCUTT against Tmem97	inactive: -1.35
GGUCAAUGGAGUUAGAAUATT against Atrn	inactive: 0.0344
GGACAUUCAGAAACAGAAGTT against Zfp451	inactive: -0.959
GGAAAUGACAAGUAUGAAGTT against Gria4	inactive: -1.33
GGUUCGACUUUCUUUGCCATT against Ola1	inactive: -0.614
GGAUCCAGUAACCAUCAUGTT against Arhgap22	inactive: 0.095
CCUAUUCCUAACCACAAGATT against Plpp2	inactive: 1.51
CCCUUGAAGAUGAAACCAGTT against Smarca5	inactive: -0.277
GGGUAUGCAUGAGCUACUATT against Tbc1d5	inactive: -1.27
CCUACAAAGUGGAUGUAAUTT against Fgfrl1	inactive: -0.429
CGGUUGAACCGGCCUCUUATT against Aco2	inactive: 0.557
GGUGCAAACGUAAACAUGATT against Asb4	inactive: -0.79
CCGGUUACCAAUUGAUAAATT against Smc3	inactive: -1.15
GGAGGAAGAACUGUCUUUGTT against Wasf1	inactive: 0.221
GGAAUCAAUGUCUCAGCCATT against Fscn2	inactive: -0.329

Sequence	z-score
CGUUACUAUUUGAUCCACCTT against Nrp2	inactive: 0.743
CCGAACUCCUCAGAAUACGTT against Sidt1	inactive: 0.639
GGACCAACAUAACCUCUACTT against Tet3	inactive: 0.776
GGAGUUGGAUAUUAUCUAUTT against Drg1	inactive: 1.04
GGAAGAUGGGCUAUUUCAUTT against Gabra6	inactive: 0.545
CCAUGUGCGACCUGAUAAUTT against Cmtm7	inactive: 0.155
UCUGCUCAACAUCGUCAAUTT against Sstr3	inactive: 0.719
GGGCACUGAGUCUCCAAAATT against Rhbdf2	inactive: 0.388
GGAGAAACGAAAAGACUCUTT against Brpf1	active: -2.25
GCCUUACUGGGUUACUUGUTT against Cdkn2d	active: 3.22
GGAUUCAAUUUUUUGCCAUTT against Pbdc1	inactive: -1.74
GGACUUUGAUGUUGAAUGUTT against Rapgef1	inactive: -0.985
CCAAAAGAGUUUUACAGGGTT against Lhx9	inactive: -0.119
CCGCUUUAAGAUAAACACUTT against Rpusd2	inactive: 0.319
CCUCCUGAUCAGAAAAGAUTT against Oplah	inactive: -0.168
GGCUCAACUGUGUUAAACATT against Tnfrsf4	inactive: -0.573
CUGUCUUAUGGAGUUGUGATT against Olfr270	inactive: -0.704
GCAGAAAAACUAAUGUACATT against Arhgap5	inactive: 0.899
GGGAACAAAAUAGAAACCATT against Lgi2	inactive: -1.58
GGGAGCUCCAAGGUUACUUTT against Zfp658	inactive: 1.26
CGGUAGGUUAAAACAGAUGTT against Rnf152	inactive: -0.0276
GGUACCAGGUAUCUUCAUUTT against Pard6g	active: 2.95

Two entries from above, as comma-separated lines.
Sequence,z-score
CGUUCUUAUUACAUCUGAUTT against Omt2b,inactive: -0.324
GCGUAGGUCAUCCUUGUAATT against Samd4,active: -2.22

Going on with the list:

Sequence	z-score
GGCAUAUUUGCCUGCAUAATT against Nkain4	inactive: 1.93
CCCUCUGUAUUGCGUACCUTT against Dusp14	inactive: 0.264
GGUGGAUAGUUAUAAAGCATT against Cep120	inactive: -0.671
GGGACAAAUAAUGAUGUGUTT against Dmbt1	inactive: -1.6
GGGAUUCGAAGGACAAUAGTT against Vmn1r211	active: -2.07
GCUGGGUCCACAUGAAUCATT against Sucnr1	active: 2.7
GGCAAUAACAGGAAAUCAATT against Pkp1	inactive: -0.148
GGACUUAUGUUGAAAACAGTT against Mapk8	inactive: -0.991
CCAGUUUCUGUUCUUCCCUTT against Clvs1	inactive: -0.298
GGUGAAUGAGAUGUCGGCCTT against Borcs5	inactive: 0.0925
GGAGCAAAGAAAUAAAAGGTT against Olfr851	inactive: -0.338
GCAACUACCCAAGUGGAAGTT against Tdrd12	inactive: 1.04
CGAAAGAUGGUGAGUCGGUTT against Ppp1r10	inactive: -1.27
GGUGCAUGCCAUUGAGUUUTT against Trim23	inactive: -0.161
GGAUGUAACUGAAAGAGAATT against Fam133b	inactive: -1.11
GGAAAACAAACUGCACUUCTT against Sdf4	inactive: -0.577
GGCUUUCAAAUGAUUAAAGTT against Wdr60	inactive: 0.435
GAAGGUUCCUCUGUAAAAATT against Defb13	inactive: -1.45
CCUAGUUCCCAAAGAGUGGTT against Tcp11l1	inactive: 0.191
